Source: article PMC5065315
No constants are given. Whether binding was seen depends on the method and setting. Binding can be weak; no strength is given.

Legend:
RYBP (mouse) = molecular target: T1, RYBP (mouse) (UniProt Q8CCI5); assay: cross-linking; 30 ug of the affinity-purified five-component PCGF1-PRC1 holocomplex cross-linked with BS3 for 30 min at 37 C; trypsin digest, LC-MS/MS, XQuest, confidence score cut-off > 15; both purified
T1 sequence: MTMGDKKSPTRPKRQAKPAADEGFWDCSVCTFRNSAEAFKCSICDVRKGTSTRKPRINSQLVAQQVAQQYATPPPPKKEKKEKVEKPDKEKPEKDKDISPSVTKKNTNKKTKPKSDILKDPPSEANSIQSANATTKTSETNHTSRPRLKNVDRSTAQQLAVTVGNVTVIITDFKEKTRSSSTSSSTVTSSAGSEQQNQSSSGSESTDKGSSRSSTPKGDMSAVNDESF

PCGF1 (mouse) = molecular target: T2, PCGF1 (mouse) (UniProt Q8R023); assay: as above
T2 sequence: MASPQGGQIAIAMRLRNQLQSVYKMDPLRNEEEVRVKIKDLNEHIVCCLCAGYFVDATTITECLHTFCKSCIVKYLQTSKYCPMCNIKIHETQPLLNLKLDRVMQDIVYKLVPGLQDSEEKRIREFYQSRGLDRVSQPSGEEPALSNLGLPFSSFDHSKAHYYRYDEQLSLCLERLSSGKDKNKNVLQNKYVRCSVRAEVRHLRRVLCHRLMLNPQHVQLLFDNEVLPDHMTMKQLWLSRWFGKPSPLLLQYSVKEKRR

binding (RYBP (mouse)): binds | binding (PCGF1 (mouse)): binds
Substance: KDM2B (short isoform) (mouse)
